PubChem BioAssay AID504804, Drosophila RNAi Screening Center – 2011
The screen tested about 19,000 reagents; below is a random part of those that have a named target and a result. In the full data, 47 (0.25%) got an active call. 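Signals are raw, not normalised; exact z-scores behind calls not deposited; actives needed confirmation, so some wells reaching 2 SD are inactive.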 Entries without a mark were called inactive. A plus sign joins genes that one reagent is predicted to hit.

Aim: 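dsRNAs that improve Kc cell survival under doxorubicin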 (primary screen)
Cell system: Drosophila Kc cells
Reagents: long dsRNA against Drosophila genes, 0.5 µg dsRNA per well
Duration: 96 h (48 h knock-down, then 48 h drug)
Challenge: doxorubicin 5 µg/ml for 48 h, added 48 h after dsRNA
Measured: 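Luminescent ATP counts per replicate, not normalised, reflecting viable cells after 48 h dsRNA knock-down followed by 48 h of 5 µg/ml doxorubicin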
Direction: raw ATP luminescence: higher = more viable cells, protection from doxorubicin
Hit rule: 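Active when both duplicate wells lie at least 2 SD above the plate mean and protection is confirmed by rescreening and independent dsRNAs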

Gene | DRSC id | raw ATP luminescence, replicate 1 | raw ATP luminescence, replicate 2
CG42299 + CG42300 | DRSC19680 | 3.93e5 | 3.24e5
CG42299 + CG42300 | DRSC19815 | 3.59e5 | 2.82e5
CG13367 | DRSC18485 | 50700 | 54310
CG13367 | DRSC18486 | 43080 | 49250
bw | DRSC04005 | 96967 | 1.01e5
bw | DRSC04677 | 66627 | 59937
p24-1 | DRSC19827 | 3.11e5 | 3.07e5
CG7231 | DRSC03034 | 48737 | 77603
Fmo-1 | DRSC04328 | 70550 | 58440
CG6055 | DRSC02923 | 23933 | 30490
CG9287 | DRSC03186 | 44353 | 64143
CG31198 | DRSC15891 | 44163 | 43250
Acp26Ab | DRSC01856 | 32543 | 43300
Reps | DRSC02940 | 53983 | 81720
Sec71 | DRSC01893 | 74923 | 75863
CG13502 | DRSC04147 | 56637 | 49307
CG14229 | DRSC19585 | 1.22e5 | 1.52e5
Tbc1d8-9 | DRSC11820 | 24353 | 21990
fne | DRSC20332 | 3.52e5 | 3.20e5
Golgin245 | DRSC04374 | 67897 | 58417
Grx5 | DRSC19593 | 3.43e5 | 2.90e5
PTP-ER | DRSC04636 | 79813 | 57380
flz | DRSC07109 | 40787 | 72360
eIF6 | DRSC04674 | 72043 | 73260
MrgBP | DRSC06417 | 48550 | 90940
AstA | DRSC14634 | 77570 | 56490
RpS9 | DRSC11273 | 25363 | 27117
Tapdelta | DRSC05946 | 53710 | 39250
CG33298 | DRSC02210 | 50763 | 71357
CG33298 | DRSC02672 | 88273 | 77050
l(2)34Fd | DRSC01911 | 1.05e5 | 82777
Akt | DRSC14108 | 40877 | 48467
CG13566 | DRSC04203 | 42970 | 51750
Dgk | DRSC05064 | 39317 | 45230
Dgk | DRSC05065 | 85493 | 84967
Dgk | DRSC06171 | 42860 | 94233
Dgk | DRSC06782 | 49013 | 1.02e5
Polr1C | DRSC02719 | 96557 | 60213

4 entries from above, limited to “raw ATP luminescence, replicate 2”.
CG42299 + CG42300 [DRSC19815] = 2.82e5
CG13367 [DRSC18485] = 54310
CG13367 [DRSC18486] = 49250
bw [DRSC04005] = 1.01e5

Next results follow.
Gene | DRSC id | raw ATP luminescence, replicate 1 | raw ATP luminescence, replicate 2
Dcps | DRSC12299 | 72407 | 26053
CG34260 + cmpy | DRSC11701 | 61477 | 60107
CG6254 | DRSC16002 | 61073 | 19790
CG5250 | DRSC15752 | 48250 | 41010
Lkr | DRSC09754 | 62913 | 67457
CG30109 + CG30108 | DRSC05674 | 1.52e5 | 1.31e5
CG14882 | DRSC15006 | 46480 | 52787
Acyp2 | DRSC15336 | 92690 | 63420
Ttc30 | DRSC01300 | 3.03e5 | 3.30e5
Ttc30 | DRSC02818 | 65387 | 76440
Peritrophin-15a | DRSC02636 | 39277 | 81617
CG1620 | DRSC06603 | 68020 | 47657
Lcp65Ac | DRSC11210 | 90817 | 82427
Rcd-1r + CG13102 | DRSC03266 | 43087 | 80763
CG32700 | DRSC17857 | 3.51e5 | 3.49e5
CG32700 | DRSC17858 | 3.02e5 | 2.94e5
Ing3 | DRSC20002 | 2.14e5 | 2.32e5
CG14659 | DRSC12245 | 58193 | 50057
vvl | DRSC11409 | 69567 | 78760
